# Measured values taken from the supplement of paper PMC12823440, “Inhibitors supercharge kinase turnover through native proteolytic circuits” (Nature, 2025).
# Protein sequences, listed by entry. Tags and fused reporters are not part of them. Lines headed by an entry give the natural chain unless they say otherwise; changes in a name come on top.
# UniProt Q9BRS2: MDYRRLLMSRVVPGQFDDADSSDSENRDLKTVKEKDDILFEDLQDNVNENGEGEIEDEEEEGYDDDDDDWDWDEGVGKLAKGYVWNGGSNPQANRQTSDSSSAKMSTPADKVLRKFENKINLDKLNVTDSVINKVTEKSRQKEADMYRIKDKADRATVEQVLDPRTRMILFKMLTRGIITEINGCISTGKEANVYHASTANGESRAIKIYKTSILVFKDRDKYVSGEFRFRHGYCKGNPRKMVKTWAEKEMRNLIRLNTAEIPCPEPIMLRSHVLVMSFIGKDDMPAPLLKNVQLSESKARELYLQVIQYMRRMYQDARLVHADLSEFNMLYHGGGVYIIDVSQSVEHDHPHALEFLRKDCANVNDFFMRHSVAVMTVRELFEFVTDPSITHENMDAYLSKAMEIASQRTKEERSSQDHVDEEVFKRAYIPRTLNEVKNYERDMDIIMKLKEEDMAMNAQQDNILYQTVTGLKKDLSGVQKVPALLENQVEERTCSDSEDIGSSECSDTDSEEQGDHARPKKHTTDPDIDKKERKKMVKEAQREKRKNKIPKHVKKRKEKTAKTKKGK
# Where a name gives a salt, the structure may show the parent alone. The list shows a part of the results. Hit calls seldom repeat between salt and free forms of one compound.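 Kinases, fused to nanoluciferase, were expressed in K562 cells; luminescence was measured every 4 h from 2 to 18 h as percent of control (DMSO = 100%, positive control = 0%). A time point is decreased if signal falls significantly (2 sigma). Hits were called by the authors by a rule that is not shown; the count of time points alone does not decide it.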
# Target: RIOK1 (UniProt Q9BRS2)
# Test: number of time points (of 5) at which kinase-Nluc abundance scored as decreased, DMSO-normalised (count); higher = more persistent destabilization
# Conditions: K562; 2-18 h
row,SMILES,number of time points
1,C[C@@H](c1ccc2nccn2c1)n1nnc2ncc(-c3cnn(C)c3)nc21 [Savolitinib] (10 µM),0
2,CN1C(=O)C(Cc2c[nH]c3ccccc23)NC1=S (stereo unspecified) [Necrostatin-1] (10 µM),0
3,C[C@@H]1C(=O)O[C@H](C)[C@H]1C[C@@H](O)[C@](C)(O)[C@H]1CC[C@@]2(O)C3=CC(=O)[C@@H]4C[C@@H](O)[C@@H](O)C[C@]4(C)[C@H]3CC[C@]12C [Cyasterone] (10 µM),0
4,CC(c1ccc(-c2cnc3c(-c4ccc(S(N)(=O)=O)c5ccccc45)cnn3c2)cc1)N1CCCC1 (stereo unspecified) (2.5 µM),0
5,CCn1c(=O)c(-c2ccc(-c3cncc(C)n3)cc2Cl)cc2cnc(NCCC3CCN(C)CC3)nc21 (10 µM),0
6,"O=C(O)c1cc(O)ccc1O [2,5-Dihydroxybenzoic acid] (10 µM)",0
7,CC(=NNC(=O)c1ccc(C)c(Br)c1)c1ccc(O)cc1O [mTOR inhibitor-1] (2.5 µM),0
8,Nc1ncnc2c1ncn2[C@@H]1O[C@H](CO)C[C@H]1O [Cordycepin] (10 µM),0
9,C=CC(=O)Nc1cc2c(Nc3ccc(OCc4ccccn4)c(Cl)c3)ncnc2cc1OCCN1CCOCC1 (10 µM),0
10,Cc1ccc(S(=O)(=O)Nc2ccccc2C=Nc2ccccc2NS(=O)(=O)c2ccc(C)cc2)cc1 (10 µM),0
11,CCOc1cc(C(=O)N2CCC(N3CCN(C)CC3)CC2)ccc1Nc1ncc2c(n1)N(C1CCCC1)c1ccccc1C(=O)N2C (10 µM),0
12,Cn1cnc(-c2cc3nccc(Oc4ccc(NC(=S)NC(=O)Cc5ccccc5)cc4F)c3s2)c1 [MGCD-265 analog] (10 µM),0
13,Cn1c(=O)c(F)c(Nc2ccc(I)cc2F)c2c(=O)n(C[C@@H](O)CO)cnc21 (10 µM),0
14,Nc1ncnc2c1c(-c1ccc(Oc3ccccc3)cc1)nn2C1CCNCC1 [N-piperidine Ibrutinib (hydrochloride)] (10 µM),0
15,Cc1csc(-c2nnc(Nc3ccc(Oc4ncccc4-c4ccnc(N)n4)cc3)c3ccccc23)c1 (2.5 µM),0
16,O=C(O)CCc1ccc(O)c(O)c1 [Dihydrocaffeic acid] (10 µM),0

# Grouped by structure: those above containing a thiophene ring, fused or not.
row,SMILES,number of time points
12,Cn1cnc(-c2cc3nccc(Oc4ccc(NC(=S)NC(=O)Cc5ccccc5)cc4F)c3s2)c1 [MGCD-265 analog] (10 µM),0
15,Cc1csc(-c2nnc(Nc3ccc(Oc4ncccc4-c4ccnc(N)n4)cc3)c3ccccc23)c1 (2.5 µM),0

# (cont.)

row,SMILES,number of time points
1,COCCOc1cnc(Sc2cc(C)c(-c3csc(NC(=O)c4ccncc4)n3)c(C)c2)cn1 [T-1101 (tosylate)] (2.5 µM),0
2,Cc1cc(NC(=O)c2cccc(NC(=O)/C=C/CN(C)C)c2)ccc1Nc1nccc(-c2cccnc2)n1 (10 µM),0
3,Cc1c(NC(=O)OC[C@@H]2COCCN2)cn2ncnc(Nc3ccc4c(cnn4Cc4cccc(F)c4)c3)c12 (10 µM),0
4,Cc1ccc(-c2c(C(=O)CF)n(CCCO)c3ncnc(N)c23)cc1 (10 µM),0
5,Cc1ccc(-c2c(C(=O)CCl)n(CCCO)c3ncnc(N)c23)cc1 (10 µM),0
6,COc1cc(F)c(F)c(Nc2ccc(I)cc2F)c1NS(=O)(=O)C1(C[C@H](O)CO)CC1 [Refametinib] (10 µM),0
7,CCN(CC)c1ccc2cc(C(=O)N3CCN(C(=O)C4=Cc5c(Br)cccc5S4(=O)=O)CC3)c(=O)oc2c1 (2 µM),0
8,COc1ccc(C(=C2C(=O)Nc3ccccc32)c2ccc(OC)cc2)cc1 (10 µM),0
9,N#Cc1ccc2ncnc(NC3CCC(N4CCOCC4)CC3)c2c1 (stereo unspecified) (10 µM),0
10,NCCN1CCN(C/C=C/C(=O)N2CCC[C@@H](n3nc(-c4ccc(Oc5ccccc5)cc4)c4c(N)ncnc43)C2)CC1 [Ibrutinib-MPEA] (10 µM),0
11,CN(CC(=O)N(Cc1ccc(C2CCCCC2)cc1)c1ccc(C(=O)O)cc1)S(=O)(=O)c1c(F)c(F)c(F)c(F)c1F (2.5 µM),0
12,CCn1c(C(=O)N(C2CC2)C2CC2)cc2c3c(ncn3C)c(Nc3cc(C)n(C)n3)nc21 (10 µM),0
13,CC(C)CN(CC(=O)N1CCN(CC(OCc2ccc3ccccc3c2)c2ccc(Cl)cc2Cl)CC1)CC(C)C (stereo unspecified) [LYN-1604 (dihydrochloride)] (2.5 µM),0
14,COc1ccc2[nH]cc(/C=C3\C(=O)Nc4ccc(NC(=O)CCN5CCCCC5)cc43)c2c1 (2.5 µM),0
15,CC(C)=CC(=O)CCC(=O)N1CCN(Cc2cc3nc(-c4cccc5[nH]ncc45)nc(N4CCOCC4)c3s2)CC1 (10 µM),0
